Experimental data reported in article doi:10.1101/2025.07.02.662776.
No constants are given. Whether binding was seen depends on the method and setting. Binding seen in cells or lysates may run through a third protein. Here binding means that the protein was enriched with, or labelled near, the bait; the list need not be complete. For some of these results: Tags and fused reporters may be left off the sequences shown. One block for each molecule: values may come before it.

By UniProt entry, the sequences of proteins in these tests, tags left out.
UniProt Q8K284: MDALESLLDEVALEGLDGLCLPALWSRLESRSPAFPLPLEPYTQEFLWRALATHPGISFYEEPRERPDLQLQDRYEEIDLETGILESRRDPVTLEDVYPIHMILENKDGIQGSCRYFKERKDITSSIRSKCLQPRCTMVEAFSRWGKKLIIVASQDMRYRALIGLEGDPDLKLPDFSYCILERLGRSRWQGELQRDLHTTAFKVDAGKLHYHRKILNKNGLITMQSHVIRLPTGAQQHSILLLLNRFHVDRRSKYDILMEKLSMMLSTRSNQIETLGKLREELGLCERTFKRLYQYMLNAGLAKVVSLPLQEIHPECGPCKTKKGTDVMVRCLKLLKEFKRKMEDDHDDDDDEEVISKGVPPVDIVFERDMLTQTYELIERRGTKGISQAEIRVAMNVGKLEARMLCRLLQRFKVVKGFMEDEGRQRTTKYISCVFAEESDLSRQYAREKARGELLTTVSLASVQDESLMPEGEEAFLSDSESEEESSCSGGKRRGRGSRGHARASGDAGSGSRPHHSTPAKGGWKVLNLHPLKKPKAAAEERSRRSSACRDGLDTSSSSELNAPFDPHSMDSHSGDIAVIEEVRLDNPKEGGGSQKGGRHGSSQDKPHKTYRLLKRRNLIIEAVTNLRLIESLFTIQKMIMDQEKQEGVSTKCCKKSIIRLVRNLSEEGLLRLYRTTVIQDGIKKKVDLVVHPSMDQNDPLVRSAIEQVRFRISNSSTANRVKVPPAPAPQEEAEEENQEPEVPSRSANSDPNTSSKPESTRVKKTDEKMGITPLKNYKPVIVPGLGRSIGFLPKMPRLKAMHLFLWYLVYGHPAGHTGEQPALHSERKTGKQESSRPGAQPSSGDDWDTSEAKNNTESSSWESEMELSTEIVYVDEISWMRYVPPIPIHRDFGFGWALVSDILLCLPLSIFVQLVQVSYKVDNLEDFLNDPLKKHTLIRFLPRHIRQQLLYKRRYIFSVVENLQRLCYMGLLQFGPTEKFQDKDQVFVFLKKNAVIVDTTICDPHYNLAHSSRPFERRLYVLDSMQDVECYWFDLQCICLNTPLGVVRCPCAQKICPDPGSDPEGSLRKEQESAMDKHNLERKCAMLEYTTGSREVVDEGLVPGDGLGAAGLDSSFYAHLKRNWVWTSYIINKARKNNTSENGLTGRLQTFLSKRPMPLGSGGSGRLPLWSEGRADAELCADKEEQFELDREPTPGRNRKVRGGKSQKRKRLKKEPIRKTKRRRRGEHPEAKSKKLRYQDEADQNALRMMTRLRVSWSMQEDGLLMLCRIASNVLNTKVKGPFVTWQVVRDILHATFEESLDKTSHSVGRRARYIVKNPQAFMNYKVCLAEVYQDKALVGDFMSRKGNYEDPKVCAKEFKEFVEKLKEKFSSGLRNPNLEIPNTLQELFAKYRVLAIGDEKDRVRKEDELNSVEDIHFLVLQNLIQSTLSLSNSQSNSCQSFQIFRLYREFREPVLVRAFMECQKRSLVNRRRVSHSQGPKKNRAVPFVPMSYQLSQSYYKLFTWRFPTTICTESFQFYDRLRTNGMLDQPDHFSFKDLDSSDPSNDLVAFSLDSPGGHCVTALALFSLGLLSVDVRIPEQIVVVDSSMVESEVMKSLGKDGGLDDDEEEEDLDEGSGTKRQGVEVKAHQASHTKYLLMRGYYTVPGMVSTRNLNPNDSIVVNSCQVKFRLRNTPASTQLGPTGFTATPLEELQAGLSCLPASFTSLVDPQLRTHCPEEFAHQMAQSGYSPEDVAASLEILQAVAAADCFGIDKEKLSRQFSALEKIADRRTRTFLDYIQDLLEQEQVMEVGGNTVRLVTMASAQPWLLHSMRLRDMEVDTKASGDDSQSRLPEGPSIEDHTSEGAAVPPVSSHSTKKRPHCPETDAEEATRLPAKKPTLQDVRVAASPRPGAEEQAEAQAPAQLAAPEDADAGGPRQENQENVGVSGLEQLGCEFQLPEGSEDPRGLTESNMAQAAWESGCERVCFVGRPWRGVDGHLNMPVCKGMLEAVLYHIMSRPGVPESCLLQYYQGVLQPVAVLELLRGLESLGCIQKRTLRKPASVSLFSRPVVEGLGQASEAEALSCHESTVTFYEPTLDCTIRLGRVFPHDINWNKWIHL
UniProt P23198: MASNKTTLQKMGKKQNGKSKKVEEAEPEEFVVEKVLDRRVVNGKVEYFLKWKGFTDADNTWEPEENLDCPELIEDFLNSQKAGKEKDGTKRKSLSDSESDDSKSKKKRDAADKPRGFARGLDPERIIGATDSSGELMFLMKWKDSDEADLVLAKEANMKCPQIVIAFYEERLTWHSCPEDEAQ
UniProt Q6PDQ2: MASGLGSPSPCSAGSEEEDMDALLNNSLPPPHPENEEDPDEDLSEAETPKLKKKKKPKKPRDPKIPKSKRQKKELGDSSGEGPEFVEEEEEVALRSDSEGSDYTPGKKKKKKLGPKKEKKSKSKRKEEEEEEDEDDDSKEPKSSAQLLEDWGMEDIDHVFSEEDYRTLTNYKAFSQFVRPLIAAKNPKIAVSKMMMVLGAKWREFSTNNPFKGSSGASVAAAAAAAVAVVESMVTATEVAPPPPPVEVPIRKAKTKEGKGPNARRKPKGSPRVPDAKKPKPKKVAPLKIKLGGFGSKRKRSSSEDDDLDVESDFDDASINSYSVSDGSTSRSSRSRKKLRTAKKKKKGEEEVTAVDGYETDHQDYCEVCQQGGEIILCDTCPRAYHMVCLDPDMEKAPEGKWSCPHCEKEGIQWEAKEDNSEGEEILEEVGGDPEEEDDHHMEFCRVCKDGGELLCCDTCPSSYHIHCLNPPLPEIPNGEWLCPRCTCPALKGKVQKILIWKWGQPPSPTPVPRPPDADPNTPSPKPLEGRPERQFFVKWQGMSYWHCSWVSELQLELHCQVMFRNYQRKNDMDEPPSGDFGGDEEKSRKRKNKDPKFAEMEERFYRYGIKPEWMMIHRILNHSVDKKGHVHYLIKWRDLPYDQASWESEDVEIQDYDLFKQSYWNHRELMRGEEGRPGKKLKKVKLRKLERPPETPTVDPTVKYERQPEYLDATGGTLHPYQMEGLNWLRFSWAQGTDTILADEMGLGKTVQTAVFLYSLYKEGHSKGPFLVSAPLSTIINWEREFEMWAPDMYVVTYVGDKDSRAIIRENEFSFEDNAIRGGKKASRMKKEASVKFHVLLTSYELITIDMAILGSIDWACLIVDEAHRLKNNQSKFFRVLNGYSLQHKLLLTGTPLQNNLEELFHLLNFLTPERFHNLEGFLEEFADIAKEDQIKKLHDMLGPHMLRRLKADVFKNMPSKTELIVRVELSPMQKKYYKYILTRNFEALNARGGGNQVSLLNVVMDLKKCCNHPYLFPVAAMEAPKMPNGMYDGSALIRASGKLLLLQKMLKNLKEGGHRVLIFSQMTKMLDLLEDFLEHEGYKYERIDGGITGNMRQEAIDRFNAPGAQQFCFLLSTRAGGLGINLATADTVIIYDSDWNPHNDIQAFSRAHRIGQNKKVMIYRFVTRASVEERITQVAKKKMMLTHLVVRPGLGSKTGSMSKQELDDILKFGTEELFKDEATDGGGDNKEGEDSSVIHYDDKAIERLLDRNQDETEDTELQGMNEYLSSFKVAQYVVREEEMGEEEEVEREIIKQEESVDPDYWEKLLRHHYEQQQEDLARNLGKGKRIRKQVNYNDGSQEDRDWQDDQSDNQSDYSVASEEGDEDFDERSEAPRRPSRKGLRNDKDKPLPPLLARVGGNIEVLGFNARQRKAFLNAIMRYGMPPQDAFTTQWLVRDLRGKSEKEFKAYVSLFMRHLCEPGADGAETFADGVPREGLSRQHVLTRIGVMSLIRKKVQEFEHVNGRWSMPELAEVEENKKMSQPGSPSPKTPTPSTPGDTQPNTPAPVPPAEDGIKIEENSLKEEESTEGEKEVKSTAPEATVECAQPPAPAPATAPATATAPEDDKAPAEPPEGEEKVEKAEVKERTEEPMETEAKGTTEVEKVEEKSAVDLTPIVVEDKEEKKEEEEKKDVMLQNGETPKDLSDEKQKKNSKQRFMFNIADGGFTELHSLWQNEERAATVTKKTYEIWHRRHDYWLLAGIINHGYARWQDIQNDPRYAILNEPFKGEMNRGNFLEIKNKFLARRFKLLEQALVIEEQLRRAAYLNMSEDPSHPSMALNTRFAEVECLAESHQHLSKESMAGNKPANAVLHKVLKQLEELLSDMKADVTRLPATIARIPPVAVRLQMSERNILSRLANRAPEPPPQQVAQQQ

How the values were obtained:
[1] = target: GTF3C1, endogenously tagged, in mouse embryonic stem cells (mouse (endogenous in mESC)) (UniProt Q8K284); test: affinity purification with mass spectrometry
[2] = target: T1, ADNP, endogenously tagged, in mouse embryonic stem cells (mouse (endogenous in mESC)) (UniProt Q9Z103); test: affinity purification with mass spectrometry
T1 sequence: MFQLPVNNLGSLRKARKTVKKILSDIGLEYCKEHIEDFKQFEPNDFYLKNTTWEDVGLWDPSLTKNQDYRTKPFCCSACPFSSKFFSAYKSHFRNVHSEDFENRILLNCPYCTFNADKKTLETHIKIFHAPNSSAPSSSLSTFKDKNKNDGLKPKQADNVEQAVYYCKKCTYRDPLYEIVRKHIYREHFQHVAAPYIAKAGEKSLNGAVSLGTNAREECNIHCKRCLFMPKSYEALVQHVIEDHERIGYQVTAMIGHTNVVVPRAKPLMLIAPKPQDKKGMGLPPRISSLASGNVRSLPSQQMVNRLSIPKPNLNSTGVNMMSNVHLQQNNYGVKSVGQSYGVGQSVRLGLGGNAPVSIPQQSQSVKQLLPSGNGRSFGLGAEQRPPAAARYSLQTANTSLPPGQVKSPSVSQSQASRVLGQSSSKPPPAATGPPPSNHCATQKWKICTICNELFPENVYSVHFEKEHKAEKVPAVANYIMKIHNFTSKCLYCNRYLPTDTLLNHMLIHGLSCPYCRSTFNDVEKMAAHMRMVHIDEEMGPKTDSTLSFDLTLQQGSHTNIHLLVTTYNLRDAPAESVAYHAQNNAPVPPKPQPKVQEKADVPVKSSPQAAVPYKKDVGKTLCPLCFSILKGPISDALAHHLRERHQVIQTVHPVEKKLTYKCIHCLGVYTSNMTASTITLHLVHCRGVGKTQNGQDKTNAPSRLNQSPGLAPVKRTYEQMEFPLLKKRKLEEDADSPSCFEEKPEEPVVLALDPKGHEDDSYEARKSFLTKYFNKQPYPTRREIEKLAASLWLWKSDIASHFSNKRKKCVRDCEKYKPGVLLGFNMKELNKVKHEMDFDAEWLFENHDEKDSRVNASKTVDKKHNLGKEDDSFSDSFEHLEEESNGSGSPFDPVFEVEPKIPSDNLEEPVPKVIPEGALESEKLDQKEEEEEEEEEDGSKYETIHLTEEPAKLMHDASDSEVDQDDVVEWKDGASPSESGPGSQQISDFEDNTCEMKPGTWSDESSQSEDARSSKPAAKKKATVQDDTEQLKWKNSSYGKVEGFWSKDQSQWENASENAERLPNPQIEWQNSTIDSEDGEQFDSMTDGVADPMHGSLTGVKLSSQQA

Molecule: CBX3 (HP1γ), endogenous, in mouse embryonic stem cells (from UniProt P23198 1-183)
binding [1]: binds

Molecule: CHD4, endogenous, in mouse embryonic stem cells (from UniProt Q6PDQ2 1-1915)
binding [1]: binds

Molecule: GTF3C1, endogenous, in mouse embryonic stem cells (from UniProt Q8K284 1-2101)
binding [2]: binds

B2: ADNP, endogenous, in mouse embryonic stem cells (protein, UniProt Q9Z103 1-1108)
chain: T1 sequence
binding [1]: binds

B3: GTF3C2, endogenous, in mouse embryonic stem cells (protein, UniProt Q8BL74 1-907)
chain: MDTCGVGYVALGEADPVGSMIVVDSPGQEELSQLDVKASETSGVEASIEMSLPPPLPGFEDSSDRRLPPDQESLTRLEQQDLSSEMSKVSNTRASKPSGRRGGRTARGAKRPQQRKPPSTPLVPGLLDQSNPLSTPMPKKRSQKSKGDLLLLKLSKGLDQPESPHPKRPPEDFETPSGERPRRRAAQVALLYLQELAEELSTALPAPPLSGPKSPKVSSPTKPKKTRQASSQGEEDGSARDEDFVLQVEGEDEEESEAPSENSSDPEPVAPRSTPRGPAAGKQKPHCRGMAPNGLPNYIMAPVWKCLHLTKDLREQHHSFWEFAEWIPVAWKWQLLSELEAAPYLPQEEKSPLFSVQREGIPEDGTIYRINRFSSITAHPERWDVSFFTGGPLWALDWCPVPEGSAASQYVALFSSPDMNETHPLSQLHSGPGLLQLWGLGTLQQESCPGNRAHFVYGIACDSGCIWDLKFCPSGAWEHPETLRKAPLLPRLGLLALACSDGKVLLFSLPHPEALLAQQPPDAMKPAIYKVQCLATLQVGSVQASDPSECGQCLSLAWMPTRPHHHLAAGYYNGMVVFWNLPTNSPLQRIRLSDGSLKLYPFQCFLAHDQAVRTIQWCKANSHFLVSAGSDRKIKFWDLRRPYEPINCIKRFLSTELSWLLPYNGVTVAQDNCYASYGLCGIHYIDAGYLGFKAYFTAPRKGTVWSLSGSDWLGTVAAGDISGELIAAILPDMASNPINVKKPAERRFPIYKADLIPYQDSPEDQDYSSTSSETPNPPKARTYTETINHHYLLFQDTDLSSFHNLLRREPMLRMQEGEGHSQLCLDRLQLEAIHKVRFSPNLDSYGWLVSGGQSGLVRIHFVRGLTSPLAHRVQLESRANFNAMFQPSFPTEGPGFSPSSHCLLPNP
binding [2]: binds

Results, then the molecule that gave them:

binding [2]: binds | binding [1]: binds
B1: GTF3C4, endogenous, in mouse embryonic stem cells (protein, UniProt Q8BMQ2 1-817)
chain: MSEADQALVGPKADEPSPPAEEKDEGGGKEAAADAAPGPSASFRLMVTRREPAVKLQYAVSGLEPLSWSEDHRVSVSTARSVAVLELICDVHNPGQDLVIHRTSVPAPLNSCLLKVGSKTEVAECKEKFASSKDPTISQTFMLDRMFNPEGKALPPMRGFKYTSWSPMGCDANGRCLLAALTMDNRLTVQVNLNRLQWVQLVDLTEIYGDRLYETSYRLSKNEAPEGNLGDFAEFQRRHSMQTPVRMEWSSICTTQQVKHNNECRDVSSVLLAVLFENGNIAVWQFQLPFVGKESISSCNTIESGISSPSVLFWWEYEHNNRKMSGLIVGSAFGPVKILPVNLKAVKGYFTLRQPVVLWKEMDKLPVHSIKCVPLYHPYQKCSCSLVVAARGSYVFWCLLLISKAGLNVHNSHVTGLHSLPIVSITADKQNGTVYTCSSDGKVRQLIPIFTDVALKFEHQLIKLSDVFGSVRTHGIAVSPCGAYLAIITTEGMMNGLHPVNKNYQVQFVTLKTFEEAAAQLLESSVQNLFKQVDLIDLVRWKILKDKHIPQFLHEALEKKIESSGVTYFWRFKLFLLRILYQSMQKSPSEALWKPTHEDSKILLVDSPGMGDGEDEQQEEGTSKQGTKAGLQEKSKEGDTEETPEDSLTAGGDTGGREPVEEKLLEIQGKIEAVEMHLTREHMKRVLGEVYLHTWITENTSIPTRGLCNFLMSDEDYDDRTAQVLIGHISKKMNKQTFPERCSLCKEILPFTDRKQAVCSNGHIWLRCFLTYQSCQSLIYRRCLLHDSIARHPVPEDPDWIKRLLQSPCPFCDSPVF

binding [2]: binds | binding [1]: binds
B4: GTF3C6, endogenous, in mouse embryonic stem cells (protein, UniProt Q9D8P7 1-227)
chain: MASPNAMAAAVDPIWEDLEEEEEELEEEQFVLVELSGIIDSDFLSKCENKCKILGIDTERPIMQVDSYVFAGEYEDTLGTCVIFEEGVERVDPEGTDKTVLKYKCHTMKKLSMTRTLLTEKKEGEENIDGVEWLQMKDNDFSYRPNMICSFLHEHEDEAAGPASDKPVELEDQESQMKGSAEQTQEQEKVEHSEVEDPAPSGETPSEMESSVFMGTQDGNVSQNNQS

binding [2]: binds | binding [1]: binds
B5: GTF3C3, endogenous, in mouse embryonic stem cells (protein, UniProt Q3TMP1 1-882)
chain: MSGFSPELIDYLEGKISFEEFERRREERKTREKKSVQEKGKSSPKENPDDSEVPSSSGIDSAKSQDKDANEGETSDGVSKSVHKVFASMLGETEDDEEEEEEEEEEETAEQPTAGDVFVLEMVLNRETKKMMKEKRPRSKLPRALRGLMGEANIRFARGEHEEAILMCMEIIRQAPLAYEPFSTLAMIYEDQGDMEKSLQFELIAAHLNPSDTEEWVRLAEMSLEQDNIKQAIFCYTKALKYEPTNVRYLWERSSLYEQMGDHKMAMDGYRRILNLLSPSDGERFMQLARDMAKSYYEANDSASAINIIEEAFSKHQGLVSMEDVNIAAELYISNKQYDKALEVITDFSGIILEKETLEEGTSEENKAAETVTCSIPDSVPIDITVKLMVCLVHLNILEPLNPLLTTLVEQNPEDMGDLYLDVAEAFLDVGEYNSALPLLSALVCSERYNLAVVWLRHAECLKALGYMERAAESYSKVVDLAPLHLDARISLSILQQQLGRPEKALEALEPMYDPDTLAQDANAAQQELKLLLHRSTLLFSQGKMYGYLDTLLTMLAMLLKVAMNRAQVCLISSSKSGERHLYLIKVSRDKISDNNEQETSNYDAKAIFAVLTSVLPKEDWWNLLLKAIYTLSDLARFQEAELLVDSSLEYYSFYDDRQKRKELEYFGLSAAILDKNFRKAYDYIRVMVMENVNKPQLWNIFNQVTMHSQDVRHHRFCLRLMLKNPDNHALCVLNGHNAFVSGSFKHALGQYVQAFRAYPSEPLYNLCIGLTFIHMASQKYVLKRHALTVQGFSFLNRYLSIRGPCQESFYNLGRGLHQLGLTHLAIHYYQKALALPPLVVEGIEVDQLDLRRDIAYNMSLIYQSSGNTAMAQKLLYTYCVI

binding [2]: binds | binding [1]: binds
B6: GTF3C5, endogenous, in mouse embryonic stem cells (protein, UniProt Q8R2T8 1-520)
chain: MAAAEPDADPKAAIPVDLRRERRLVCVEYPGVVRNEAKMLQTLGGEESVSRIYTDPTKRLELYFRPKDPYCHPVCANRFSTSSLLLRIRKRTRRRRGVLGDEAHPQVTFNLEIIGIISTIYKFQGMSDFQYLAVHTEAGGKHVSMYDRVLMRKPEKEEFFHQELPLYIPPPIFSRLDTPVDYFYRPETQHREGYHNPTISGENLIGLSRARRPHNAIFVNFEDTEVPEQPLEAAVQTWKKACTNPIDQKVEEELRKLFDIRPVWSRNAVKSNVSVHPDKLKILLPYMAYYMITGPWRSLWIRFGYDPRKHPDAKIYQVLDFRIRCGMKYGYGSRDMPVKAKRSTYNYSLPITVKKTSNQPGTMHDLKQGLGPSGTDGPRKLTYNKYKLKDSVYIFREGALPPYRQMFYQLCDLNVEELQKIVHRNDGTETVCTERDGWCLPKTTDHLRDTMSLMILQTIRSERPALFSNTGKADRGKEQLMFESGEEEEEEEEEEEEEEEDFKPSDGSENEMETEILDYV
